Laboratory results: patent US10533002B2, “Thiophene- or furan-substituted isothiazoline compounds as pesticides” (BOEHRINGER INGELHEIM ANIMAL HEATLH USA INC., priority 2013, dated 2020)
Some entries share one result that the patent states for a list of compounds.

What was measured:
[1] = test system: Orchid Thrips (Dichromothrips corbetti); experiment: Orchid thrips floral-immersion test (B.4); assay type: in vivo; settings: 500 ppm; adult thrips on dipped orchid petals, 72 hours after treatment
[2] = test system: Boll Weevil (Anthonomus grandis); experiment: Boll weevil microtiter diet test (B.8); assay type: in vivo; settings: 2500 ppm; egg and larval mortality, sprayed insect diet, 5 days
Protocol: B.8 Boll Weevil (Anthonomus grandis)
For evaluating control of boll weevil (Anthonomus grandis) the test unit consisted of 96-well-microtiter plates containing an insect diet and 5-10 A. grandis eggs.
The compounds were formulated using a solution containing 75% v/v water and 25% v/v DMSO. Different concentrations of formulated compounds were sprayed onto the insect diet at 5 μl, using a custom built micro atomizer, at two replications.
After application, microtiter plates were incubated at about 25±1° C. and about 75±5% relative humidity for 5 days. Egg and larval mortality was then visually assessed.

Cc1cc(C2=NSC(c3cc(Cl)c(Cl)c(Cl)c3)(C(F)(F)F)C2)sc1C(=O)NCC(=O)NCC(F)(F)F (racemic) [Compound 1-3]
mortality in comparison with untreated controls [1]: at least 75%

Cc1cc(C2=NSC(c3cc(Cl)c(Cl)c(Cl)c3)(C(F)(F)F)C2)sc1C(=O)NCc1ncccn1 (racemic) [Compound 1-6]
mortality in comparison with untreated controls [2]: at least 75%

Cc1cc(C2=NSC(c3cc(Cl)c(Cl)c(Cl)c3)(C(F)(F)F)C2)sc1C(=O)NC1CS(=O)(=O)C1 (racemic) [Compound 1-8]
mortality in comparison with untreated controls [1]: at least 75%
